Results are given in words; binding and its absence hold for the method and conditions named. In cells and extracts the contact can be indirect. Binding calls can cover weak binding; strength is not graded here.

Sequences of proteins named here, by UniProt entry; tags and fusion partners are left off. A change or cut given only in a name is not applied to a line headed by its entry.
UniProt Q3KK31: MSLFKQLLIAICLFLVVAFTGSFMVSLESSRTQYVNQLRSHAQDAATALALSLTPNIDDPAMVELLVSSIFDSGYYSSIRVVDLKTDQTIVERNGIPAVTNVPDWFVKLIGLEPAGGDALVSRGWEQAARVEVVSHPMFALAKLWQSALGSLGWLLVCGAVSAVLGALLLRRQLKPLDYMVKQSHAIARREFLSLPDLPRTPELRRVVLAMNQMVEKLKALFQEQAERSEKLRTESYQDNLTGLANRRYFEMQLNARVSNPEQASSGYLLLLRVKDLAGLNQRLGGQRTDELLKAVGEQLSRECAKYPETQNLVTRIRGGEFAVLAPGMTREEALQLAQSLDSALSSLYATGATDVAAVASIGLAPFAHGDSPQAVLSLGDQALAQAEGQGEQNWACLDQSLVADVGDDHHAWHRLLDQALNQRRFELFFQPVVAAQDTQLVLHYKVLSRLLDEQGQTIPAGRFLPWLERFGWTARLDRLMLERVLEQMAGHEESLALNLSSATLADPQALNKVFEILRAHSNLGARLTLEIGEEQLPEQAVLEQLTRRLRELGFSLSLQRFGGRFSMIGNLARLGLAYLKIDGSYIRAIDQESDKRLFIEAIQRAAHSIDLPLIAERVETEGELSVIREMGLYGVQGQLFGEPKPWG

For assay [1], the target named is LapD^TMcys-A602C–sfGFP (Pseudomonas fluorescens Pf0-1) (UniProt Q3KK31). The experiment in a line: cross-linking; disulfide crosslinking with Cu(Phen)2 in fused E. coli membrane fractions (0.05% Triton X-100, sonication, washed) from cells separately expressing LapD–sfGFP and non-fluorescent LapD; 50 μM LapG and 100 μM c-di-GMP.
Assay [2] has the same target. The assay can be described thus: cross-linking; disulfide crosslinking with Cu(Phen)2 of mixed LapD–sfGFP and non-fluorescent LapD variants, detergent-solubilized (~1 μM), after incubation with c-di-GMP and LapG; SDS-PAGE, in-gel fluorescence.

As for “LapD^TMcys-A602C lacking sfGFP (non-fluorescent) (from UniProt Q3KK31) (receptor)”, the binding entry in assay [1] and in assay [2] was “binds” throughout. “LapD^TMcys lacking sfGFP (non-fluorescent; C304A, C397S) (from UniProt Q3KK31) (receptor)”: in assay [2], the binding result was “binds”.

For the origin of these results see paper PMC5231407.
